Source: EP0661271B1, “AZEPINE DERIVATIVES, PRODUCTION THEREOF, AND USE THEREOF AS SIGMA-RECEPTOR LIGANDS” (Asahi Kasei Kogyo Kabushiki Kaisha, priority 1992, dated 1994)
For at least one compound, name, drawing or mass did not settle the structure.

Target: σ-receptor
Test: Binding activity for σ-receptor, [3H]DTG displacement in rat brain membrane preparation
Parameters: species or system Sprague-Dowley rat
Details: rat whole brain (except cerebella) membrane, [3H]DTG 3 nM, 25°C 60 minutes; compounds tested as hydrochloride; read-out: Sigma [^3H] DTG Ki

CC1(C)[C@H]2CC[C@]1(C)CN(CCc1ccc3c(c1)OCO3)C2 [Example 54, (1S)-3-[2-(1,3-benzodioxol-5-yl)ethyl]-1,8,8-trimethyl-3-azabicyclo [3.2.1] octane] showed a Ki of 0.0134 µM.
